{"source": "PubChem BioAssay AID1259254 (NCATS, 2017)", "aim": "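Genome-wide screen for genes that prevent DNA re-replication in cancer cells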 (primary screen)", "cell system": "human HCT116 colorectal cancer cells", "reagents": "single siRNA against human genes", "duration": "3 days", "read-out": "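Nuclei stained with Hoechst and imaged; cell-cycle phase assigned by DNA content; G2 share scaled per plate, non-targeting siRNA 0%, GMNN siRNA 100%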", "reading the numbers": "G2 robust z-score: higher = more G2 cells, more excess DNA replication", "active means": "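An siRNA counts as active if its G2 robust z-score lies at least 5 MADs above the screen median; here such calls match roughly 38% of GMNN control or more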", "note": "Here is one part, drawn at random, of about 59,000 reagents tested. In the full data, about 1,550 (2.6%) are marked active. 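G2 share is only a proxy for re-replication; each gene was hit by three separate siRNAs, and active genes were retested.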 A number with no mark means an inactive call. Reagents against one gene are numbered here. Not all columns of the deposit are shown. Reagent sequences are not shown. Not stated in the record: the amount of reagent."}
{"target": "MTG2", "reagent": 1, "G2 robust z-score": 0.638}
{"target": "MTG2", "reagent": 2, "G2 robust z-score": 2.61}
{"target": "MTG2", "reagent": 3, "G2 robust z-score": 4.34}
{"target": "NLRP11", "reagent": 1, "G2 robust z-score": -0.671}
{"target": "NLRP11", "reagent": 2, "G2 robust z-score": 0}
{"target": "NLRP11", "reagent": 3, "G2 robust z-score": 0.886}
{"target": "FAM111A", "reagent": 1, "G2 robust z-score": 1.03}
{"target": "FAM111A", "reagent": 2, "G2 robust z-score": 0.229}
{"target": "FAM111A", "reagent": 3, "G2 robust z-score": -0.406}
{"target": "RNASE8", "reagent": 1, "G2 robust z-score": 1.23}
{"target": "RNASE8", "reagent": 2, "G2 robust z-score": -0.967}
{"target": "RNASE8", "reagent": 3, "G2 robust z-score": -0.86}
{"target": "UNC5CL", "reagent": 1, "G2 robust z-score": 0.126}
{"target": "UNC5CL", "reagent": 2, "G2 robust z-score": -0.191}
{"target": "UNC5CL", "reagent": 3, "G2 robust z-score": -0.26}
{"target": "PLPP5", "reagent": 1, "G2 robust z-score": -0.0326}
{"target": "PLPP5", "reagent": 2, "G2 robust z-score": 0.235}
{"target": "PLPP5", "reagent": 3, "G2 robust z-score": 1.43}
{"target": "UBB", "reagent": 1, "G2 robust z-score": 0.96}
{"target": "UBB", "reagent": 2, "G2 robust z-score": 0.373}
{"target": "UBB", "reagent": 3, "G2 robust z-score": -0.459}
{"target": "CCDC66", "reagent": 1, "G2 robust z-score": -0.209}
{"target": "CCDC66", "reagent": 2, "G2 robust z-score": 0.0129}
{"target": "CCDC66", "reagent": 3, "G2 robust z-score": -0.32}
{"target": "LOC728073 (retired record)", "reagent": 1, "G2 robust z-score": -1.28}
{"target": "LOC728073 (retired record)", "reagent": 2, "G2 robust z-score": 0.208}
{"target": "LOC728073 (retired record)", "reagent": 3, "G2 robust z-score": -0.51}
{"target": "PTDSS1", "reagent": 1, "G2 robust z-score": -0.0353}
{"target": "PTDSS1", "reagent": 2, "G2 robust z-score": 1.26}
{"target": "PTDSS1", "reagent": 3, "G2 robust z-score": 3.07}
